Over roughly 33,000 sequences, “E-score (-0.5 to 0.5)” has its median near -0.0014; the highest 2% begin near 0.25. This is one part of the list.
What follows are sequences tested against T1, Cad1 (UniProt P24813) (assay: PBM E-score (8-mer binding enrichment) (E-score (-0.5 to 0.5)); higher = stronger / more preferred TF binding). Details: protein concentration: 100 nM; construct: GST-full length.
T1 sequence: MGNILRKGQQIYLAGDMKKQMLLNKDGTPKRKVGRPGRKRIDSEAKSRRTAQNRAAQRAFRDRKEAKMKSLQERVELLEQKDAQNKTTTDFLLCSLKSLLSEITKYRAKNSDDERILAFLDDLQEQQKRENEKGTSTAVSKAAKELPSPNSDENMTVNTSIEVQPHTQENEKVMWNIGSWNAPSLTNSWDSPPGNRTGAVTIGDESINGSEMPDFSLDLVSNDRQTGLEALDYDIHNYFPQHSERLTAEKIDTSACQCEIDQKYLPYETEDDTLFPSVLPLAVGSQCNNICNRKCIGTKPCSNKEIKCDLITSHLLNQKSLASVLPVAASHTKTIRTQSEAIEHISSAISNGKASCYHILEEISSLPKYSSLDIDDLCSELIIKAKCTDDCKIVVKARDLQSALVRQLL
Outline: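 Universal all-10-mer Agilent arrays, fresh or stripped once, were converted to double-stranded form by primer extension. GST-tagged yeast transcription factors from PURExpress in vitro transcription/translation, full-length or DNA-binding domain only, were applied at about 100-200 nM and detected with fluorescent anti-GST. After masliner normalisation, the Universal PBM Analysis Suite scored each ungapped eight-base word together with its reverse complement by E-score.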
With AAAAATAT the “PBM E-score” value was 0.205. With ACTCGCCC the “PBM E-score” value was -0.193. In the case of GGCTCAAA, the “PBM E-score” value is reported as 0.0219. CCAACCTC was tested, and the “PBM E-score” value was 0.00899. AGACCAAC was tested, and the “PBM E-score” value was -0.0795. With CAAGGATG the “PBM E-score” value was -0.0792. For AAGAGCTA, the “PBM E-score” value was -0.0042. In the case of CTTGGCGA, the “PBM E-score” value is reported as -0.169. With ATCCGATA the “PBM E-score” value was 0.136. With GGGTATCA the “PBM E-score” value was -0.00298. With CACGACAA the “PBM E-score” value was 0.105. With CTCCCCTC the “PBM E-score” value was -0.238. For AAGTACAA, the “PBM E-score” value was -0.0585. AGAGGACT was tested, and the “PBM E-score” value was -0.357. In the case of AGGTTTAC, the “PBM E-score” value is reported as -0.138. For GACGTGTA, the “PBM E-score” value was -0.0301. AACACGAA was tested, and the “PBM E-score” value was 0.217. For CTCCCGGA, the “PBM E-score” value was -0.183. In the case of AAGATGCG, the “PBM E-score” value is reported as 0.0209. In the case of CTGAGAAA, the “PBM E-score” value is reported as -0.0304. For CTCTTTTC, the “PBM E-score” value was -0.0429. For CTATGAAC, the “PBM E-score” value was 0.0413. For GAAGGCTA, the “PBM E-score” value was -0.0959. AGTAGTCA was tested, and the “PBM E-score” value was 0.0524. With CGGATCCA the “PBM E-score” value was 0.0492. For GCTGAAAA, the “PBM E-score” value was 0.141. For AACACCAC, the “PBM E-score” value was 0.0441. With AAAGACCC the “PBM E-score” value was -0.125. With ATCAGCAA the “PBM E-score” value was 0.122. ATGCTTGA was tested, and the “PBM E-score” value was 0.128. ACTGGAGA was tested, and the “PBM E-score” value was -0.124. With ATCACAAG the “PBM E-score” value was 0.0939. In the case of TCGATCCA, the “PBM E-score” value is reported as -0.0414. ATGCGCGA was tested, and the “PBM E-score” value was 0.0852. GACATCGA was tested, and the “PBM E-score” value was -0.0153. For ATCGAGGA, the “PBM E-score” value was 0.135. CGCACCGC was tested, and the “PBM E-score” value was -0.0793. ATGTATTA was tested, and the “PBM E-score” value was 0.121. For GGCCCGAC, the “PBM E-score” value was 0.0437. For AACTCTTA, the “PBM E-score” value was 0.0953. TACTCGCA was tested, and the “PBM E-score” value was 0.216. AAGCTACC was tested, and the “PBM E-score” value was 0.0175. With ACACTCAA the “PBM E-score” value was 0.124. In the case of GTTACGGA, the “PBM E-score” value is reported as -0.0631. For AACGGTCC, the “PBM E-score” value was -0.0507. With AAACAAGC the “PBM E-score” value was 0.0118. In the case of ACCTGCCC, the “PBM E-score” value is reported as -0.064. For AATGCCAA, the “PBM E-score” value was 0.027. CGCTCACC was tested, and the “PBM E-score” value was -0.146. In the case of AGCACCTG, the “PBM E-score” value is reported as -0.104. For GCTATACC, the “PBM E-score” value was 0.0606. In the case of AGCTTACC, the “PBM E-score” value is reported as -0.0175. In the case of CCATCATA, the “PBM E-score” value is reported as -0.27. For GAGGTGAC, the “PBM E-score” value was 0.0748. With ACGTCACG the “PBM E-score” value was 0.0291. CGGAATGC was tested, and the “PBM E-score” value was 0.0138. With AATGGCCC the “PBM E-score” value was -0.158. With GAGTGTCC the “PBM E-score” value was 0.0576. In the case of AATAACCT, the “PBM E-score” value is reported as -0.114. With ACATTCAA the “PBM E-score” value was 0.0432. In the case of AGGCATAC, the “PBM E-score” value is reported as 0.0831. In the case of ACTCAGAA, the “PBM E-score” value is reported as 0.178. In the case of AGGTTAAT, the “PBM E-score” value is reported as 0.0288. AACGAGGG was tested, and the “PBM E-score” value was -0.185. CTTATCTC was tested, and the “PBM E-score” value was 0.063. In the case of CAGACCTG, the “PBM E-score” value is reported as -0.0473. With AAAGCAGT the “PBM E-score” value was 0.03. GAGACAAC was tested, and the “PBM E-score” value was 0.0594. For AGGATTAG, the “PBM E-score” value was 0.00136. For AAGGTGCG, the “PBM E-score” value was -0.0392. With CCGGGACA the “PBM E-score” value was 0.067. GCTGTACC was tested, and the “PBM E-score” value was 0.0106. In the case of GGTCGTAA, the “PBM E-score” value is reported as 0.0676. ACTCTCTG was tested, and the “PBM E-score” value was -0.00478. In the case of ATTTGTTC, the “PBM E-score” value is reported as 0.265. In the case of CGCACGCC, the “PBM E-score” value is reported as -0.106. CGGGTTAG was tested, and the “PBM E-score” value was -0.179. AATTGAGC was tested, and the “PBM E-score” value was -0.108. For CCAACTCC, the “PBM E-score” value was -0.0401. For CCCACGAC, the “PBM E-score” value was -0.195. In the case of TCGGGGAA, the “PBM E-score” value is reported as 0.0236. For GAGTGAGC, the “PBM E-score” value was -0.0112. GGGAACAA was tested, and the “PBM E-score” value was 0.0338. For CTATTGGC, the “PBM E-score” value was -0.279. CGAGGGAA was tested, and the “PBM E-score” value was -0.126. For AGTCCGCG, the “PBM E-score” value was 0.0892.

Reference: the supplement of paper PMC3334620
